# PubChem BioAssay AID1671195 – Yale University – 2021
# Screen: 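Genes whose knockdown alters LDL uptake in liver cancer cells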 (primary screen)
# Cell system: human Huh7 hepatoma cells
# Knock-down reagent: siRNA pool against human genes, 18 nM
# Timing: about 2 to 2.5 days of knockdown, then 8 h LDL uptake
# Challenge: DiI-labelled LDL at 30 µg/ml for 8 h, in lipoprotein-deficient serum medium
# Read-out: 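Per-cell DiI-LDL intensity by automated imaging; well means scaled to the plate median and given as a robust z-score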
# Scale: robust z-score: higher = more LDL uptake after knockdown
# Active means: 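Active when two or more replicates show a robust z-score above 2 or below -2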
# Shown is an unselected part of about 22,000 reagents. Over the whole deposit, about 1,510 (6.9%) are marked active. 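Active includes knockdowns raising or lowering LDL uptake; positive z-scores mean more uptake, negative mean less.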 Entries without a mark were called inactive. Reagent sequences are not shown.
target,"robust z-score, replicate 1","robust z-score, replicate 2","robust z-score, replicate 3"
PNMA3,-0.839,-1.6,-0.711
LRPPRC,-0.175,-0.154,0.567
UBAC1,-0.553,2.34,0.657
HEMK2,-0.859,-0.302,-1.26
CYP26C1,-0.123,-0.294,0.0981
MAPKAP1,-0.948,-1.01,-1.87
SLC4A9,-1.19,-1.11,-0.909
TMEM154,-0.148,-0.673,-0.608
ADAMTS16,0.829,0.846,0.474
TRIML2,0.291,0.115,0.488
TEX47,0.0313,-0.0805,0.158
LOC440314 (retired record),0.638,0.137,0.71
LOC399917 (retired record),0.0462,0.0351,-0.43
WNT7B,-1.43,0.229,-0.916
TRIM55,0.103,-0.18,-0.137
TEF,-0.415,0.731,1.1
DRC5,-0.0412,-0.985,-0.744
ZFP36L1,2.45 (active),2.07,2.47
SPRYD7,-0.151,0.0371,-0.28
SSPOP,2.14,-0.675,1.67
UQCC1,0.929,-0.729,0.268
LOC400701 (retired record),0.546,0.435,0.423
TBC1D17,0.796,0.416,-0.117
LOC389687 (retired record),-1.23,-0.877,-1.35
ZSCAN20,1.34,1.35,0.82
DOCK6,-1.33,-1.03,2.09
RPS6P17,0.988,0.656,1.34
SPHKAP,0.217,-0.118,0.184
C5,1.36,0.566,1.75
PTK6,0.244,0.0597,0.311
SYN3,-0.84,-1.28,-1.57
NCAPG,-1.32,-1.21,-1.37
LOC286404 (retired record),-0.00747,-0.197,-0.0427
OR52N5,3.3 (active),3.27,2.96
RANBP3L,-1.2,-1.35,-1.34
LINC00482,-0.712,-0.825,-1.03
AUP1,-0.776,-0.602,0.0384
PPIL6,-0.855,-0.552,-0.858
CHST3,-0.737,-1.57,-1.71
STKLD1,-0.693,-0.25,-0.743
APBA3,0.107,-0.32,-0.455
LOC400847 (retired record),-0.614,-0.774,-0.399
SLC8A3,0.602,0.71,0.169
ATOH1,-0.0372,-0.241,-0.224
EPB41L1,-0.527,-0.105,-0.484
TTC22,-1.21,-1.25,-1.76
AK5,0.89,1.49,0.564
SCG2,-1.51,0.36,-0.341
CD101,-0.0902 (active),-2.25,-1.95
C9orf72,0.113,0.227,0.548
FASTKD3,0.826,1,1.48
FBXW11,0.636,-0.699,0.748
LOC442081 (retired record),-0.154,-0.103,-0.385
LINC02870,0.544,0.304,0.822
MID1IP1,-1.57,-1.63,-1.63
TXNIP,0.119,-0.619,1.22
PIGB,2.6,1.4,1.88
CARMIL3,-0.278,0.0907,0.00977
TRAPPC3,1.03,1.79,2.82
PPT2,-1.8,-1.82,-1.74
SCGB1D4,-0.115,0.525,-0.359
PBXIP1,-0.983,0.427,0.303
INHBC,0.172,-0.87,-0.0418
CRX,-0.679,-1.09,-0.618
RPS6KA6,1.1,-0.96,0.206
PM20D2,-2.18,-1.14,-1.26
MAP6,0.368,-0.279,-0.96
FGF18,-0.828,-0.241,-0.913

Copied from the list.
Result for SCG2 under “robust z-score, replicate 3”: -0.341
For “robust z-score, replicate 2”, FGF18 is entered as -0.241
PPIL6, robust z-score, replicate 2 → -0.552
Under “robust z-score, replicate 2”, RANBP3L shows -1.35
Under “robust z-score, replicate 1”, FBXW11 is entered as 0.636
ATOH1, robust z-score, replicate 2 → -0.241
